Reference: US20060240404A1, “Methods of isolating genes encoding proteins of specific function and of screening for pharmaceutically active agents” (Yeda Research And Development Co. Ltd., priority 2000, published 2006)
Some results were stated once for a whole list of compounds, not compound by compound. At least one compound was matched to its structure with a doubt left.

System: translocation of fibrillar adhesion in GFP-tensin transfected HFF cells
Assay: Correlation analysis of fibrillar adhesion dynamics in time-lapse movies of GFP-tensin transfected cells treated with acto-myosin inhibitors
Format: cell-based
Details: after wash-out
Experimental: HFF cells were analyzed by time-lapse fluorescence recording starting 24 hours after transfection with GFP-tensin as described (10). During the recording different inhibitors of acto-myosin contractility were added ([…]) at the time point indicated by the first arrow, and washed out at the time point indicated by the second arrow. In each digital movie, a constant square frame (I) of […] containing only fibrillar adhesions without focal contacts was acquired as a function of time. Correlation was calculated between pairs of subsequent time points (It and It+1) for the duration of the movie. Correlation between It and It+1 was calculated (according to Eq. 1, where N=It and M=It+1). The graphs present this correlation as a function of time (t); and
The basic idea of this novel approach is that correlation is a quantitative measure of image similarity. Correlation is defined as the normalized pixel-by-pixel multiplication of two normalized images M and N (Eq. 1), and it is higher when the similarity between the two images is higher. Thus, if, and only if, N and M are identical images the correlation gets its maximum value of 1. When N equals −M (inverted images) the correlation reaches its minimum value, −1, and when N and M are totally unrelated images the correlation approaches zero. […]

With `C/C1=C/C(=O)O[C@@H]2C[C@@H](CC[C@H](C)/C=C\C=C\CC1)O[C@@](O)([C@@H]1CSC(=O)N1)C2` [Lat-A, latrunculin-A] the “recovery of fibrillar adhesion translocation after washing-out the drug” value was greater than 80 min.
